This experiment concerns the target T1, Flag−RFP (pFlag-CMV2-human RFP; Ret finger protein) (human) (UniProt P14373).
T1 sequence: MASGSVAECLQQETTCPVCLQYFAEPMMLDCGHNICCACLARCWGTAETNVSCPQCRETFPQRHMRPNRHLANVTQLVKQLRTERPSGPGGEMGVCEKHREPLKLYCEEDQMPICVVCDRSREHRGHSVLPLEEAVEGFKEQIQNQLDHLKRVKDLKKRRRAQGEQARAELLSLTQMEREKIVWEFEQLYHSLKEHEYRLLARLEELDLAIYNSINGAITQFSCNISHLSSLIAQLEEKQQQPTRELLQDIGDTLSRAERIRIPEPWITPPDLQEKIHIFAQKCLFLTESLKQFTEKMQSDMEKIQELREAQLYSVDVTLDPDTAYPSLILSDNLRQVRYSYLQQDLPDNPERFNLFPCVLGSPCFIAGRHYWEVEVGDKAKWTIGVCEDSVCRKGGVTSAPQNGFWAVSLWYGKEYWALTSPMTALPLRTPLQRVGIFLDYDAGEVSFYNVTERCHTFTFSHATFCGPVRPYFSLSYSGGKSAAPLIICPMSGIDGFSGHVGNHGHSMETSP
The experiment is described as follows: co-IP; HEK293T cells expressing Flag−RFP and HA−PPAR-γ; lysate incubated with primary antibody (anti-HA or anti-Flag) overnight at 4 °C, protein A/G beads 2 h at 4 °C; immunoblot with anti-Flag or anti-HA. (A western blot detects proteins with antibodies after separation by electrophoresis.)

These are yes or no findings as the source states them, for the method shown. In cells and extracts the contact can be indirect. A result given as binding can be weak or reduced; the word gives no strength. Sequences can lack the tags named with a protein.

On to HA−PPAR-γ (pCS4-HA-PPAR-γ), for which the binding entry is given as “binds”.

Source of the values: paper PMC12508092.
